In patent publication EP1503771B1, “SEDATIVE MATERIALS AND TREATMENTS” (University of Strathclyde, priority 2002, dated 2003):
At least one compound was matched to its structure with a doubt left.

System: mice
Test: sodium thiopental-induced sleeping time
Type: in vivo
Conditions: 1 mg/kg i.p. 20 min before sodium thiopental 30mg/kg i.p. (Table 20), listed as chrysin
Procedure: The effect of the active components in fraction H of Table 3 (ACN 50%, 23-27) and that of the aqueous remaining solution (Table 3) were tested in mice by i.p. administration. The doses were 2 mg per mouse for fraction H and 5 mg per mouse for the aqueous remaining solution fraction B. A small amount of conventional anesthetic (30 mg/kg of thiopental sodium - Biochemie, GmbH, Kundl, Austria) was used to induce a slight sleeping condition in the mice which were monitored to detect any possible enhancement of the sleeping condition by the previous injection of the novel compounds.
Median (interquartile range) of sleeping time of mice given a sodium thiopental i.p. administration (30 mg/kg) 20 min after an i.p. injection of vehicle or 6-methylapigenin. The sleeping time was measured as the time spent between disappearance and reappearance of righting reflex. Table 8 - Effect in different behavioral tests of 6-methylapigenin (sedation tests)

`O=c1cc(-c2ccccc2)oc2cc(O)cc(O)c12` [Chrysin, reference compound] was tested, and the “Sleeping time Median (min)” value was “do not produce any sleeping time”.
